Data on 26 targets can be found in the supplement of paper PMC10849652.

Protein sequences, listed by entry. Tags and fused reporters are not part of them. Lines headed by an entry give the natural chain unless they say otherwise; changes in a name come on top.
UniProt Q9BT43: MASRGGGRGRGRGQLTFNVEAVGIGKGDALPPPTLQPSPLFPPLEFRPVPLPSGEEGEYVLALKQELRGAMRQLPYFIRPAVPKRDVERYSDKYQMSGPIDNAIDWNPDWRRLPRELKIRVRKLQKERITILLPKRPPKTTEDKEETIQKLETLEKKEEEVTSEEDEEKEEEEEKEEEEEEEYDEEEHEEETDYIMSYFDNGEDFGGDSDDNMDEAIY
UniProt Q8IYS1: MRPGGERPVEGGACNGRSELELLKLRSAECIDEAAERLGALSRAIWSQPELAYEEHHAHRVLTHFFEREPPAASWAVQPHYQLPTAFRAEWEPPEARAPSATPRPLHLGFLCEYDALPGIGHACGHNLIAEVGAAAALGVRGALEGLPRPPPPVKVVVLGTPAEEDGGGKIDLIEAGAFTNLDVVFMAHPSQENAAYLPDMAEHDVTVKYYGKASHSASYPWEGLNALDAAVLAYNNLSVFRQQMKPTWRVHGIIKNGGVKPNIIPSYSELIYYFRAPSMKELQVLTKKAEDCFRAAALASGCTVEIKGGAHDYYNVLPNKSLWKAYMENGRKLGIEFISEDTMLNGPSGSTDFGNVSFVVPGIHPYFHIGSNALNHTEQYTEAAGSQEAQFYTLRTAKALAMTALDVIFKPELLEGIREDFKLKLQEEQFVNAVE
UniProt Q9NUX5: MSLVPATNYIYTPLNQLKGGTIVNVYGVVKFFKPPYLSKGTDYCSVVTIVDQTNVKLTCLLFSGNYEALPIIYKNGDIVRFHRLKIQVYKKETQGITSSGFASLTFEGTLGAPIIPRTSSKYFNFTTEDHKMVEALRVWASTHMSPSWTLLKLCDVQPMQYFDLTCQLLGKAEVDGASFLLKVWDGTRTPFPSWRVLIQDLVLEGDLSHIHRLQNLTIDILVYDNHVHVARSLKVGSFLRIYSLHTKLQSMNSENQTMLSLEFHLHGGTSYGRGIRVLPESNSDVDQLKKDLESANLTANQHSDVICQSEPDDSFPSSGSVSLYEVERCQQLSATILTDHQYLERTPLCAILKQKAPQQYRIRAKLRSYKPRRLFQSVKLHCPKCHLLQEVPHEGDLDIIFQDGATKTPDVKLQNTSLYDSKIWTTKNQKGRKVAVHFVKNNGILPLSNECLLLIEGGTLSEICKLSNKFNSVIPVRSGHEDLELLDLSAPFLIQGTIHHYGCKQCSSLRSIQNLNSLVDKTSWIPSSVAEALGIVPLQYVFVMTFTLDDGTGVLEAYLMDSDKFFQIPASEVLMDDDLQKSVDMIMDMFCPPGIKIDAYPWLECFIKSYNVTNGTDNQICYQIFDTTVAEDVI
UniProt P62937, whole entry, looked up: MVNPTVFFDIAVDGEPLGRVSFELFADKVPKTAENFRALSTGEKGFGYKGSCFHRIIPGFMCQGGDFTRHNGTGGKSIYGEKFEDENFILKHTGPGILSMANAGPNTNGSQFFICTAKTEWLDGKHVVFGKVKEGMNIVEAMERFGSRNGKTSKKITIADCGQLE
UniProt Q9Y4D7: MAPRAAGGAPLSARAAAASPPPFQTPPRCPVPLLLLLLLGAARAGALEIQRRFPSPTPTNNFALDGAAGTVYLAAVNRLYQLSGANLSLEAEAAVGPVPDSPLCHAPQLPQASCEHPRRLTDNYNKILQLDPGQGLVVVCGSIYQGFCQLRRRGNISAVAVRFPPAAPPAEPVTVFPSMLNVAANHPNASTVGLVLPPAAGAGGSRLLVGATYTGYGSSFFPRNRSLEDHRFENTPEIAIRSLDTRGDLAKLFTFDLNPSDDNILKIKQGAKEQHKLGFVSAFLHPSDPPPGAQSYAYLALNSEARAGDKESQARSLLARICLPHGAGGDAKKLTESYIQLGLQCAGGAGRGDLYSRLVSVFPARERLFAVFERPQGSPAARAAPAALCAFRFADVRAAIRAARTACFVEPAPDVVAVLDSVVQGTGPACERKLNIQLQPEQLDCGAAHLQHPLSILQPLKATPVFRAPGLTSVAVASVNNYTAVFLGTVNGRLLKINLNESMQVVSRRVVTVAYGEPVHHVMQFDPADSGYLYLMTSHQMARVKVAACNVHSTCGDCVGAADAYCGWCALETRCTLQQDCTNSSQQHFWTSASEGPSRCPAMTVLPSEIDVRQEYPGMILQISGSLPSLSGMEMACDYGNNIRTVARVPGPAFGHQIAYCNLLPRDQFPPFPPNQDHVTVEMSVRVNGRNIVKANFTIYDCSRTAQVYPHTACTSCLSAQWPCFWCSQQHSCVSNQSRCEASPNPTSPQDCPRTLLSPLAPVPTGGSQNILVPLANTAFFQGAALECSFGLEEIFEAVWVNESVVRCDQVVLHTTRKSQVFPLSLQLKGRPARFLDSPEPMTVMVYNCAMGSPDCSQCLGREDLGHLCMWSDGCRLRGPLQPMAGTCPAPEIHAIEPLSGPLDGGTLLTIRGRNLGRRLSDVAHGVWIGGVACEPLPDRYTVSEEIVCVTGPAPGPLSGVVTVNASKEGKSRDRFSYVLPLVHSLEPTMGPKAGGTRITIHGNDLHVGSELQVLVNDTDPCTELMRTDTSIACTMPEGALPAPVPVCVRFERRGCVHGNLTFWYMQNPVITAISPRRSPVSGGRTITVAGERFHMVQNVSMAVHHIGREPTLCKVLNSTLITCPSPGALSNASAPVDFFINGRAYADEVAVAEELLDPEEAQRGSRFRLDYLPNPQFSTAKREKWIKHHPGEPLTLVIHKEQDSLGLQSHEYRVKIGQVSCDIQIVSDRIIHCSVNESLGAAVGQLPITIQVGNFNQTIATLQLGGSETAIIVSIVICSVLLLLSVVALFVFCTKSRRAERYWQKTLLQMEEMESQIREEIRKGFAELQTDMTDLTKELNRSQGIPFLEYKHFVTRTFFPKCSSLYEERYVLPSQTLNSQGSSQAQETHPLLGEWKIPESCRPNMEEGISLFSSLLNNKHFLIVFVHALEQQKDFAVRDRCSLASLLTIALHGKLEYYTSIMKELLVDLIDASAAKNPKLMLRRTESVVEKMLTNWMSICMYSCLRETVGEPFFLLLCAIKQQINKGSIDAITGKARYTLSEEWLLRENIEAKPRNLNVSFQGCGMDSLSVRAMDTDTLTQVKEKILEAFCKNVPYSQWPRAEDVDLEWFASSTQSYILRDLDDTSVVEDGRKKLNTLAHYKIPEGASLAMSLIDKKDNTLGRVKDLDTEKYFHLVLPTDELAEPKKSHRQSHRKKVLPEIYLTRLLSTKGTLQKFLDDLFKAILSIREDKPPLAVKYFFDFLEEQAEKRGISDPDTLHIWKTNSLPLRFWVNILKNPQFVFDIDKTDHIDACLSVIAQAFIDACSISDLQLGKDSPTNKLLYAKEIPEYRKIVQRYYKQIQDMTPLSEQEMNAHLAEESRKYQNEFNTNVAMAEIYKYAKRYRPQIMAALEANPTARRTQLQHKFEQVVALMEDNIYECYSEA
UniProt Q9NRY6: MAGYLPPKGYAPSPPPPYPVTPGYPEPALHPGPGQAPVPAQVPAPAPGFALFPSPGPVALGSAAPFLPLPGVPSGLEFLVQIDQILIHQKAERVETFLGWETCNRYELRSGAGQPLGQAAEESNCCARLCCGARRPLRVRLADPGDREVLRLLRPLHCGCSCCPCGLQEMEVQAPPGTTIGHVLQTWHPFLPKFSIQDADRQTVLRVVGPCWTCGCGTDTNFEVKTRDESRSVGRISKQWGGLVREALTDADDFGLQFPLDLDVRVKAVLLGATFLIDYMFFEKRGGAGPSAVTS
UniProt Q9HCU8: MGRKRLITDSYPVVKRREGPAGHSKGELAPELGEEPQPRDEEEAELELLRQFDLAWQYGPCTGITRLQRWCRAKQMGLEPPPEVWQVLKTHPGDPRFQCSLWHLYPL
UniProt Q8NEY8: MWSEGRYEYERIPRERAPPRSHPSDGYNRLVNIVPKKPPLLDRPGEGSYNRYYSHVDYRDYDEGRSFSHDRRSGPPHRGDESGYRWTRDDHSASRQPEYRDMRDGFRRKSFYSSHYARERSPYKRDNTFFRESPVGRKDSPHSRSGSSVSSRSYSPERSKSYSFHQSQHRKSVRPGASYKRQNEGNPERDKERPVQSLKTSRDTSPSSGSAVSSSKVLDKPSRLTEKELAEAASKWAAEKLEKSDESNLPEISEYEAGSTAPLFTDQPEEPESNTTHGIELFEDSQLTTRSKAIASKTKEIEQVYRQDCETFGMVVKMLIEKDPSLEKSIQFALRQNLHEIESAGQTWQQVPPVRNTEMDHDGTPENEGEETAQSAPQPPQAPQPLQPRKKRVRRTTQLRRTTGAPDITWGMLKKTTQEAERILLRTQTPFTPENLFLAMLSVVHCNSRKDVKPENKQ
UniProt O00469: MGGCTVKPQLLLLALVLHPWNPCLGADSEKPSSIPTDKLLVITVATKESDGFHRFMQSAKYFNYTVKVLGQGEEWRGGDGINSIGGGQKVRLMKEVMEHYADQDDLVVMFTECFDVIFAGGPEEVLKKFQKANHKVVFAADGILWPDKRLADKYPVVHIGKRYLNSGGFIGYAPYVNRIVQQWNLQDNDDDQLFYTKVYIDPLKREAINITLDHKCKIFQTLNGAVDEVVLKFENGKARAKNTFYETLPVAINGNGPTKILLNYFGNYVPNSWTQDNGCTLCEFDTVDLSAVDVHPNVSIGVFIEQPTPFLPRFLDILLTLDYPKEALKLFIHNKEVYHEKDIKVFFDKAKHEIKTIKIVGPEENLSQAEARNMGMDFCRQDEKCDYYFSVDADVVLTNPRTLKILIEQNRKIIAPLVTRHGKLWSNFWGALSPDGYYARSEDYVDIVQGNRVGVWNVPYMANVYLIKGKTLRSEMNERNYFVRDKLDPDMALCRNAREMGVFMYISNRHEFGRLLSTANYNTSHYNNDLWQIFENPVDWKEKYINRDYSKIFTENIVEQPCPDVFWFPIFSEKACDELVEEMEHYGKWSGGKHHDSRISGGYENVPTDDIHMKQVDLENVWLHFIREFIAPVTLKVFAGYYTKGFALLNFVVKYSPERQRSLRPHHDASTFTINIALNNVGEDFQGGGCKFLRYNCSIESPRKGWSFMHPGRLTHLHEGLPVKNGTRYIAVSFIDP
UniProt Q8TD55: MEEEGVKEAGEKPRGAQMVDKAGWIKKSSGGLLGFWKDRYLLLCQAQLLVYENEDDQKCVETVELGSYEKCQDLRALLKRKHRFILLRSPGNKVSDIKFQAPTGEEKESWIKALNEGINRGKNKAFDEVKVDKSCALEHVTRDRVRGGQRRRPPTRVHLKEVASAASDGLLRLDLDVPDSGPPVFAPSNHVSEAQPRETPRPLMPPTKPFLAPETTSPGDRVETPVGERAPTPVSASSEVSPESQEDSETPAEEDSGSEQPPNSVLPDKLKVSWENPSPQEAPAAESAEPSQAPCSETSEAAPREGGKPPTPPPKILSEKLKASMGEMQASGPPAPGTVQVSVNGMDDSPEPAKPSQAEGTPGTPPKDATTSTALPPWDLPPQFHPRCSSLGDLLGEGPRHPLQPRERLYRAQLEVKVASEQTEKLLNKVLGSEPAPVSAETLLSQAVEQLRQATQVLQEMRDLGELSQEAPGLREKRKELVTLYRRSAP
UniProt O75688: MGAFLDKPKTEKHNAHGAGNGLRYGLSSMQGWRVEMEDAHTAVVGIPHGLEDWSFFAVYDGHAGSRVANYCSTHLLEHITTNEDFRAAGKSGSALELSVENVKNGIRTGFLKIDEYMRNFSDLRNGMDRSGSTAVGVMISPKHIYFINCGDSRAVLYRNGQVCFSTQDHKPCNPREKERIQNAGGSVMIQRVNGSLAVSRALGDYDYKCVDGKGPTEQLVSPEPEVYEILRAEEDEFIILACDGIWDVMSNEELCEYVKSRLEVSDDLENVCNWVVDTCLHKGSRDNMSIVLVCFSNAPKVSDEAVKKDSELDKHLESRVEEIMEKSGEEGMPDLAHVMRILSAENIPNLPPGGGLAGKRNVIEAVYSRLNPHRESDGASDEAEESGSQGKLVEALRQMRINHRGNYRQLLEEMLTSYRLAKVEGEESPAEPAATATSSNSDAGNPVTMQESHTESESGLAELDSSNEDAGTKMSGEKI
UniProt Q8WVV4: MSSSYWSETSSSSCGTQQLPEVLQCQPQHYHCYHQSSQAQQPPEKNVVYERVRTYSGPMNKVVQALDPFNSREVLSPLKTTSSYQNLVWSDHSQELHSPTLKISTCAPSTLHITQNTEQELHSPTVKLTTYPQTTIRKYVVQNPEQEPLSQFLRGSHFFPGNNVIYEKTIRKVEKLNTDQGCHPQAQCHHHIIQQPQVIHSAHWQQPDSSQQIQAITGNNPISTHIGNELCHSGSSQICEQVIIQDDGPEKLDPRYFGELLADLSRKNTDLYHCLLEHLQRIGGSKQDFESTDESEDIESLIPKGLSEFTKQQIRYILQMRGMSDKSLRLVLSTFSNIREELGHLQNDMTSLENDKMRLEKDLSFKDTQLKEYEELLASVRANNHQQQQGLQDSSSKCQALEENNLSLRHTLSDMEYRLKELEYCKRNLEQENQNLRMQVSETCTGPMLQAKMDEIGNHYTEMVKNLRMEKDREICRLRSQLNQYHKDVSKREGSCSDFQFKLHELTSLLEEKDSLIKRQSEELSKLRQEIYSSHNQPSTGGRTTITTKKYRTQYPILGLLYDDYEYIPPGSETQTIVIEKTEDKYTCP

This is one part of the list.

Compound in the first test: NC(=O)Nc1cc(-c2cccc(F)c2)sc1C(=O)N[C@H]1CCCNC1
The test can be described thus: log2 fold change, soluble protein after heating vs DMSO (PISA); higher = thermal stabilisation; K562 cells, 10 uM, 30 min; active = over 0.2 and 3.5 SD of the protein, either way, in both replicates (recomputed). The gist of the method:
(§1)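 K562 cells at 2×10^6 cells/mL were treated with 10 μM compound for 30 min. Aliquots were heated for 3 min across 48°C-58°C, pooled, and extracted in PBS with 0.5% NP-40 at 4°C; soluble protein was the supernatant after 21,000xg for 90 min. Soluble protein was quantified by TMTpro 16plex LC-MS/MS with channel sums equalised, and reported as log2 fold change in thermal stability against DMSO controls, with values from duplicates.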
On to POLR3GL (UniProt Q9BT43), for which the log2 fold change was inactive: -0.106.
The same measure, in the same setting: as for POLB (UniProt P06746), the figure is inactive: -0.103; as for POLRMT (UniProt O00411), inactive: 0.011.
On to PLS3 (UniProt H7C4N2), for which the log2 fold change was inactive: -0.183.
Same read-out and setting: to PM20D2 (UniProt Q8IYS1) belongs inactive: -0.004; to POT1 (UniProt Q9NUX5), inactive: -0.068.

Compound in the next test: NC(=O)c1cnc(N[C@@H]2CCCC[C@@H]2N)nc1Nc1cccc(-n2nccn2)c1
The test is described as above. In short, it runs like this: as §1
For POMT2 (UniProt Q9UKY4), the log2 fold change is inactive: -0.054.
Same read-out and setting: as for PNPLA6 (UniProt Q8IY17), the figure is inactive: 0.122; as for PPIA isoform 2 (UniProt P62937), inactive: -0.288.
The same measure, in the same setting: as for POC1A (UniProt Q8NBT0), the figure is inactive: 0.055; as for PLXND1 (UniProt Q9Y4D7), inactive: 0.018; as for PLSCR3 (UniProt Q9NRY6), inactive: 0.156.
Still for that read-out and setting: as for POMT1 (UniProt Q9Y6A1), the figure is inactive: -0.112.
Take POLR1E isoform 1 (UniProt Q9GZS1): the log2 fold change is inactive: 0.098.
Still for that read-out and setting: as for POLD4 (UniProt Q9HCU8), the figure is inactive: 0.082.
The same measure, in the same setting: to POLR2E (UniProt P19388) belongs inactive: 0; to POLR2J (UniProt P52435), inactive: 0.056.

Compound in a further test: NC1(c2ccc(-c3nc4ccn5c(=O)[nH]nc5c4cc3-c3ccccc3)cc2)CCC1
The description is as above. The gist of the method: as §1
PPHLN1 (UniProt Q8NEY8): the log2 fold change was inactive: 0.043.
As for POLR3GL (UniProt Q9BT43), the log2 fold change is inactive: -0.099.
Still for that read-out and setting: to PNPLA6 (UniProt Q8IY17) belongs inactive: 0.003; to PPIA isoform 2 (UniProt P62937), inactive: -0.253; to PPIG (UniProt Q13427), inactive: 0.153.
As to POC1A (UniProt Q8NBT0), the log2 fold change is inactive: -0.103.
On the same count and under the same terms, to PLXND1 (UniProt Q9Y4D7) belongs inactive: -0.131; to PLOD2 isoform 2 (UniProt O00469), inactive: -0.087.
On the same count and under the same terms, as for PLEKHO2 (UniProt Q8TD55), the figure is inactive: 0.031; as for PPM1B isoform 2 (UniProt O75688), inactive: -0.052; as for POLG, A0A3B3IS91, inactive: 0.062.
On to POMT1 (UniProt Q9Y6A1), for which the log2 fold change is inactive: 0.065.
Same read-out and setting: to POF1B isoform 1 (UniProt Q8WVV4) belongs inactive: -0.033; to POLR1E isoform 1 (UniProt Q9GZS1), inactive: -0.053.
Take POT1 (UniProt Q9NUX5): the log2 fold change is inactive: 0.013.
On the same count and under the same terms, as for POLD4 (UniProt Q9HCU8), the figure is inactive: 0.003; as for POLR2E (UniProt P19388), inactive: -0.021.
Still for that read-out and setting: as for POLR2J (UniProt P52435), the figure is inactive: 0.053.
Turning to POLQ (UniProt O75417), the log2 fold change was inactive: -0.054.
On the same count and under the same terms, to PMS2CL (UniProt Q68D20) belongs inactive: 0.185.
